No constants are given. Whether binding was seen depends on the method and setting. Binding seen in cells or lysates may run through a third protein. These calls come from enrichment with a bait or labelling near it, and not all partners need be listed. For some assays here: A no says only that the protein was not detected with the bait.
Experiments:
[1] = target: T1, SREBP cleavage-activating protein (SCAP) (mouse (endogenous in mouse VSMCs)) (UniProt Q6GQT6); assay: affinity purification with mass spectrometry; IP with SCAP antibody (Abcam ab153933) from whole cell extracts of PDGFBB-treated VSMCs, magnetic beads, SDS-PAGE, LC-MS/MS
T1 sequence: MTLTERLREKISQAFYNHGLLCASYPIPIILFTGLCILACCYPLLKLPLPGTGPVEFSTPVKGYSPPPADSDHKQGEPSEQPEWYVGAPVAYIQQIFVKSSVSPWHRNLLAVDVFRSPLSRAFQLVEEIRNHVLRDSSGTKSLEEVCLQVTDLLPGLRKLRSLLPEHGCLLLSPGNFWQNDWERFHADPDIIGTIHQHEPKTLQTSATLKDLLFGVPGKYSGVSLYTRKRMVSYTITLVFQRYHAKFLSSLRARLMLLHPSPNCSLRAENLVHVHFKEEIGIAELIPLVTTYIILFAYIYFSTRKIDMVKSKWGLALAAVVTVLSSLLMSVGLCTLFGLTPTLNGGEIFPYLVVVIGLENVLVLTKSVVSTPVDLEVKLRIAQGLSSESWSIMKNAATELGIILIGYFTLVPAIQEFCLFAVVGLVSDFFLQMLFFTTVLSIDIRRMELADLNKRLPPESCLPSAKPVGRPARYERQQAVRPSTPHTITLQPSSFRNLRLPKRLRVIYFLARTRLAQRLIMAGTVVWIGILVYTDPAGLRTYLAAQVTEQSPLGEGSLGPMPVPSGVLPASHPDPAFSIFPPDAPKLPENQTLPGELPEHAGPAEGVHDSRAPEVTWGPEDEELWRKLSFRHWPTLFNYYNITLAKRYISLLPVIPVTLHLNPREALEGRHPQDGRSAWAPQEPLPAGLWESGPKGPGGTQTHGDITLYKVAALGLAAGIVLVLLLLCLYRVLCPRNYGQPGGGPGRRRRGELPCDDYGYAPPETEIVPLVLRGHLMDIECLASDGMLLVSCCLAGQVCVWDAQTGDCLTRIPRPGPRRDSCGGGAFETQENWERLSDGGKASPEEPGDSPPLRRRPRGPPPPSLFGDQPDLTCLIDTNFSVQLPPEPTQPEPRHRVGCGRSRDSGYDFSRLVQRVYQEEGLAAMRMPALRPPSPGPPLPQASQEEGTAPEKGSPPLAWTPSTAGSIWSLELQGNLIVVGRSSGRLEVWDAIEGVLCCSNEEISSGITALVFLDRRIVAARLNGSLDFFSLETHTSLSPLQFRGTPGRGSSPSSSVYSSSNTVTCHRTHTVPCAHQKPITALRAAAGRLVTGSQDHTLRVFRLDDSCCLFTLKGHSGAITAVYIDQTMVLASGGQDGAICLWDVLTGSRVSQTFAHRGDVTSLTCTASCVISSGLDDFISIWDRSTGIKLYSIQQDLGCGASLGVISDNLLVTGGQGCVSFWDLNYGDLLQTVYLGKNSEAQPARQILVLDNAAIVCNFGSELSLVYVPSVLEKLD

[2] = target: T1, SREBP cleavage-activating protein (SCAP) (mouse (endogenous in mouse VSMCs)); assay: affinity purification with mass spectrometry; IP with SCAP antibody (Abcam ab153933) from whole cell extracts of control VSMCs (no PDGFBB), magnetic beads, SDS-PAGE, LC-MS/MS

- binding [1]: binds
- binding [2]: no binding (only cells without PDGFBB)
B1: Tripartite motif containing 27 (Trim27) (protein, UniProt Q62158 1-513)
chain: MASGSVAECLQQETTCPVCLQYFVEPMMLDCGHNICCACLARCWGAAETNVSCPQCRETFPQRHMRPNRHLANVTQLVKQLRTERPSGPGGEMGVCEKHREPLKLYCEQDQMPICVVCDRSREHRGHSVLPLEEAVEGFKEQIQNRLDHLRRVKDLKKRRRAQGEQARAELLSLTQMEREKIVWEFEQLYHSLKEHEYRLLARLEELDLAIYNSINGAITQFSCNISHLSGLIAQLEEKQQQPTRELLQDIGDTLSRAERIRIPEPWITPPDLQEKIHIFAQKCLFLTESLKQFTEKMQSDMEKIQELREAQLYSVDVTLDPDTAYPSLILSDNLRQVRYSYLQQDLPDNPERFNLFPCVLGSPCFIAGRHYWEVEVGDKAKWTIGVCEDSVCRKGGVTSAPQNGFWAVSLWYGKEYWALTSPMTALPLRTPLQRVGIFLDYDAGEVSFYNVTERCHTFTFSHATFCGPVRPYFSLSYSGGKSAAPLIICPMSGIDGFSGHVGNHGHSMETSP
